PubChem BioAssay AID1259254 | NCATS | 2017
In all, the deposit lists about 59,000 reagents; below is a random part of them. About 1,550 of all reagents (2.6%) count as active. 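G2 share is only a proxy for re-replication; each gene was hit by three separate siRNAs, and active genes were retested.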 The raw values are shown without normalisation. A number with no mark means an inactive call. The numbers tell different reagents against one gene apart. The record does not give: the amount of reagent.

Aim: 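Finding genes that stop cells copying their DNA twice in one cycle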 (primary screen)
System: human HCT116 colorectal cancer cells
Reagents: single siRNA against human genes
Timing: 3 days
Read-out: 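Nuclei stained with Hoechst and imaged; cell-cycle phase assigned by DNA content; G2 share scaled per plate, non-targeting siRNA 0%, GMNN siRNA 100%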
Direction: G2 robust z-score and G2 cells, % of GMNN control: higher = more G2 cells, more excess DNA replication; raw share of cells in G2: higher = larger share of cells with G2 DNA content
Hit rule: 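An siRNA counts as active if its G2 robust z-score lies at least 5 MADs above the screen median; here such calls match roughly 38% of GMNN control or more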

gene knocked down	reagent	G2 robust z-score	G2 cells, % of GMNN control	raw share of cells in G2 (%)
ZNF385C (GeneID 201181)	1	-0.648	-1.59	3.03
ZNF385C (GeneID 201181)	2	-0.271	1.06	3.31
ZNF385C (GeneID 201181)	3	-0.153	1.89	3.36
GRPEL1 (GeneID 80273)	1	-0.0273	2.78	3.77
GRPEL1 (GeneID 80273)	2	-1.05	-4.45	3.9
GRPEL1 (GeneID 80273)	3	0.914	9.4	6.58
LDHC (GeneID 3948)	1	-1.08	-4.66	1.66
LDHC (GeneID 3948)	2	-0.531	-0.77	5.06
LDHC (GeneID 3948)	3	0.267	4.85	7.39
ABCC6P1 (GeneID 653190)	1	5.85 (active)	44.1	22.5
ABCC6P1 (GeneID 653190)	2	1.02	10.2	6.92
ABCC6P1 (GeneID 653190)	3	-0.875	-3.19	1.83
TIGD3 (GeneID 220359)	1	-0.681	-1.82	3.93
TIGD3 (GeneID 220359)	2	4.64	35.6	22.9
TIGD3 (GeneID 220359)	3	-0.0712	2.47	5.6
OR6K6 (GeneID 128371)	1	-0.672	-1.76	3.51
OR6K6 (GeneID 128371)	2	-0.815	-2.77	2.23
OR6K6 (GeneID 128371)	3	-0.158	1.86	3.25
FAM222B (GeneID 55731)	1	0.0289	3.17	4.15
FAM222B (GeneID 55731)	2	1.22	11.5	8.95
FAM222B (GeneID 55731)	3	-0.836	-2.91	2.93
SDHCP5 (GeneID 642502)	1	-0.181	1.69	3.69
SDHCP5 (GeneID 642502)	2	-1.33	-6.42	1.14
SDHCP5 (GeneID 642502)	3	-0.471	-0.349	3.28
OSBPL11 (GeneID 114885)	1	-0.649	-1.6	3.88
OSBPL11 (GeneID 114885)	2	-0.185	1.66	5.68
OSBPL11 (GeneID 114885)	3	-0.544	-0.863	5.27
SLC66A2 (GeneID 80148)	1	0.286	4.98	6.51
SLC66A2 (GeneID 80148)	2	1.19	11.3	9.26
SLC66A2 (GeneID 80148)	3	0.513	6.58	4.18
RPL23AP82 (GeneID 284942)	1	1.44	13.1	8.4
RPL23AP82 (GeneID 284942)	2	3.84	30	14.6
RPL23AP82 (GeneID 284942)	3	-0.0547	2.58	4.05
FAM86B1 (GeneID 85002)	1	-0.876	-3.2	1.91
FAM86B1 (GeneID 85002)	2	-0.274	1.04	4.53
FAM86B1 (GeneID 85002)	3	0.132	3.89	4.22
KCNIP4 (GeneID 80333)	1	0.0492	3.31	3.96
KCNIP4 (GeneID 80333)	2	2.5	20.5	15.2
KCNIP4 (GeneID 80333)	3	1.57	14	8.03
TMEM217 (GeneID 221468)	1	-0.777	-2.5	2.67
TMEM217 (GeneID 221468)	2	0.539	6.76	5.44
TMEM217 (GeneID 221468)	3	-0.281	0.989	3.51
PABPC1L (GeneID 80336)	1	-0.278	1.01	4.86
PABPC1L (GeneID 80336)	2	-0.67	-1.75	3.54
PABPC1L (GeneID 80336)	3	-0.118	2.14	2.96
CICP18 (GeneID 646070)	1	5.61 (active)	42.4	19.8
CICP18 (GeneID 646070)	2	-0.891	-3.3	2
CICP18 (GeneID 646070)	3	0.9	9.3	6
EDDM3A (GeneID 10876)	1	0.000969	2.97	6.99
EDDM3A (GeneID 10876)	2	0.24	4.66	5.35
EDDM3A (GeneID 10876)	3	-0.891	-3.3	5.18

Entries above with an active call:
gene knocked down	reagent	G2 robust z-score	G2 cells, % of GMNN control	raw share of cells in G2 (%)
ABCC6P1 (GeneID 653190)	1	5.85 (active)	44.1	22.5
CICP18 (GeneID 646070)	1	5.61 (active)	42.4	19.8

More records follow.
gene knocked down	reagent	G2 robust z-score	G2 cells, % of GMNN control	raw share of cells in G2 (%)
OR10AD1 (GeneID 121275)	1	0.736	8.15	7.36
OR10AD1 (GeneID 121275)	2	1.82	15.8	8.03
OR10AD1 (GeneID 121275)	3	0.252	4.74	3.2
ZKSCAN7 (GeneID 55888)	1	-0.582	-1.13	2.39
ZKSCAN7 (GeneID 55888)	2	-0.793	-2.61	4.73
ZKSCAN7 (GeneID 55888)	3	1.68	14.8	8.28
SOCS1 (GeneID 8651)	1	1.73	15.2	11.9
SOCS1 (GeneID 8651)	2	-1.18	-5.33	1.78
SOCS1 (GeneID 8651)	3	3.45	27.3	13
GSTO1 (GeneID 9446)	1	-0.493	-0.503	3.03
GSTO1 (GeneID 9446)	2	-0.711	-2.03	4.43
GSTO1 (GeneID 9446)	3	-0.4	0.156	4.81
CABP5 (GeneID 56344)	1	-0.535	-0.794	2.51
CABP5 (GeneID 56344)	2	-0.255	1.17	6.44
CABP5 (GeneID 56344)	3	-0.965	-3.82	2.43
LINC00518 (GeneID 221718)	1	0.554	6.87	6.07
LINC00518 (GeneID 221718)	2	-0.898	-3.35	1.98
LINC00518 (GeneID 221718)	3	-0.211	1.48	3.67
HLA-L (GeneID 3139)	1	0.0167	3.08	4.81
HLA-L (GeneID 3139)	2	0.223	4.54	5.14
HLA-L (GeneID 3139)	3	0.118	3.8	4.41
FBXO38 (GeneID 81545)	1	0.482	6.36	7.08
FBXO38 (GeneID 81545)	2	-0.601	-1.26	3.75
FBXO38 (GeneID 81545)	3	-0.808	-2.72	1.63
PP2D1 (GeneID 151649)	1	-1.14	-5.08	2.12
PP2D1 (GeneID 151649)	2	1.8	15.7	7.75
PP2D1 (GeneID 151649)	3	0.077	3.51	4.29
LINC03042 (GeneID 389649)	1	-0.785	-2.56	2.9
LINC03042 (GeneID 389649)	2	0.718	8.02	6.89
LINC03042 (GeneID 389649)	3	0.632	7.41	7.81
IFNA8 (GeneID 3445)	1	0.165	4.13	5.14
IFNA8 (GeneID 3445)	2	2.12	17.9	13.7
IFNA8 (GeneID 3445)	3	0.359	5.49	6.1
OR51G2 (GeneID 81282)	1	0.152	4.04	3.48
OR51G2 (GeneID 81282)	2	0.0271	3.16	5.76
OR51G2 (GeneID 81282)	3	0.83	8.81	8.15
